In PubChem BioAssay AID2685 (National Center for Advancing Translational Sciences (NCATS), 2010):
The other results are listed elsewhere or left out. These are further read-outs of the screen, such as a control signal, another cell line or another target. No call is given for them. Most of these compounds were active or inconclusive in the main read-out, so they are no random draw. The note in brackets gives the kind of curve behind each potency; many fits are weak.

Experiment: qHTS Assay for Lipid Storage Modulators in Drosophila S3 Cells;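 on cell number change: cells counted by Cell Tracker Red CMTPX staining in the red channel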
Details: BODIPY lipid droplet fluorescence, 18-24 h; for cell number change: measured here: cell count max response, cells fed with added oleic acid
In short: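 Drosophila S3 cells got compounds at several concentrations plus oleic acid (400 uM solution). Laser-scanning cytometry with 488 nm excitation read lipid droplets at 500-530 nm and cells at 575-640 nm. Percent activity was relative to 20 uM Triacsin C.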

[1] = measured here: cell number channel AC50, cells fed with added oleic acid
[2] = measured here: lipid fluorescence (Fed channel) AC50, cells fed with added oleic acid

Compound	cell number change	AC50 [1]	AC50 [2]
O=C(/C=C/c1ccc(OC(F)F)cc1)Nc1cccc(S(=O)(=O)N2CCOCC2)c1	56.5%	0.326 µM [rising, full curve]	–
COc1ccc(OCCC(=O)Nc2ccc(S(N)(=O)=O)cc2)cc1	46.6%	13 µM [rising, partial curve, poor fit]	29.1 µM [rising, single point]
CC(C)(C)OC(=O)N/N=C/c1c[nH]c2ccccc12	-0.853%	–	13 µM [rising, single point]
CCOC(=O)c1c(-c2cccs2)csc1NC(=O)CCCC(=O)O	-5.57%	0.164 µM [falling, full curve, poor fit]	–
COc1cc([N+](=O)[O-])ccc1NC(=O)COC(=O)c1n[nH]c2ccccc12	3.37%	–	29.1 µM [rising, single point]
Cc1ccc(C(C)C)cc1S(=O)(=O)NC1CC(C)(C)NC(C)(C)C1	23.5%	1.16 µM [rising, full curve, poor fit]	29.1 µM [rising, single point]
CC(Oc1ccccc1Cl)C(=O)N1CCCN(C)CC1 (stereo not drawn)	-1.1%	–	–
CCOC(=O)N1CCC(NS(=O)(=O)c2ccc3c(c2)CCN3C(C)=O)CC1	57.3%	14.6 µM [rising, single point]	–
c1ccc(-c2n[nH]nc2-c2ccccc2)cc1	–	–	0.366 µM [falling, full curve]
CC(=O)c1cccc(N2C(=NC(=O)C3CC3)SC3CS(=O)(=O)CC32)c1 (stereo not drawn)	13.7%	–	23.1 µM [falling, single point]
O=c1cnnc(N/N=C/c2ccc3c(c2)OCO3)[nH]1	24.6%	–	–
CC1CCCN(C(=O)CN(c2ccccc2)S(=O)(=O)c2ccc(F)cc2)C1 (stereo not drawn)	12.3%	–	2.91 µM [rising, full curve]
O=C1CCCc2c1cnc1ncnn21	-9.74%	–	4.11 µM [rising, full curve]
CC(=O)C1=C(O)C(=O)N(CCc2c[nH]c3ccccc23)C1c1ccco1 (stereo not drawn)	-3.09%	–	0.013 µM [falling, full curve, poor fit]
COc1ccc(NC(=O)c2cccc(N3C(=O)C4CCC(C)CC4C3=O)c2)c(OC)c1 (stereo not drawn)	15.8%	–	–
CCCn1c(CN2CCN(c3cccc(Cl)c3)CC2)nc2c1c(=O)n(C)c(=O)n2C	-0.395%	–	–
COc1ccc(Cl)cc1S(=O)(=O)N1CCC(C(=O)NCc2ccccn2)CC1	18.5%	0.461 µM [falling, full curve, poor fit]	–
O=C(CC1Oc2ccccc2NC1=O)NCCCN1CCN(Cc2ccccc2)CC1 (stereo not drawn)	-28.9%	–	32.6 µM [falling, single point]

Record cards, from the list above. Order of values: cell number change	AC50 [1]	AC50 [2]
`CC(=O)C1=C(O)C(=O)N(CCc2c[nH]c3ccccc23)C1c1ccco1` (stereo not drawn) is listed as -3.09%	–	0.013 µM [falling, full curve, poor fit]
`CCCn1c(CN2CCN(c3cccc(Cl)c3)CC2)nc2c1c(=O)n(C)c(=O)n2C` is listed as -0.395%	–	–
